Data from the supplement of paper PMC3334620.
Whole data set: some 33,000 sequences, median “E-score (-0.5 to 0.5)” near -0.015, cut for the highest 2% near 0.3. The list shows a part of the results.

molecular target: T1, Abf1 (UniProt P14164); test: PBM E-score (8-mer binding enrichment) (E-score (-0.5 to 0.5)); higher = stronger / more preferred TF binding; conditions: protein concentration: 200 nM; construct: GST-full length
T1 sequence: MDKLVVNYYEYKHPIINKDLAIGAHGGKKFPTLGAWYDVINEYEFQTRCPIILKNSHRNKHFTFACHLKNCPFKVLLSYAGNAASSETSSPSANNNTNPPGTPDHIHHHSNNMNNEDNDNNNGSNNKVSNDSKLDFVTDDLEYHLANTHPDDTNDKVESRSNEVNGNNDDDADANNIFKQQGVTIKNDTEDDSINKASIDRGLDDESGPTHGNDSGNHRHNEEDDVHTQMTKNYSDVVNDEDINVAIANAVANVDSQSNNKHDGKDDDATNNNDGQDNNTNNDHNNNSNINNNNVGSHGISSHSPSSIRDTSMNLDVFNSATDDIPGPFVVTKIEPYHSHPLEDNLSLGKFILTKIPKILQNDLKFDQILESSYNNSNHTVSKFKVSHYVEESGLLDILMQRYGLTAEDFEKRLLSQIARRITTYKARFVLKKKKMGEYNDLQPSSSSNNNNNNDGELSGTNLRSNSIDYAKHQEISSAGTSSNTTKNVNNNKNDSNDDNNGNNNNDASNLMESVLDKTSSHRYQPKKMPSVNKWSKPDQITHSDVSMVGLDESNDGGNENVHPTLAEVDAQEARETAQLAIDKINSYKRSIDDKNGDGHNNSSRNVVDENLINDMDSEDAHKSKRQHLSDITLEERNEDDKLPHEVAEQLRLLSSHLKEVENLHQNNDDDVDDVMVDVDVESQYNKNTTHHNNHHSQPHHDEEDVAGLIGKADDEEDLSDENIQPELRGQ
Summary of the method: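 Masliner-normalised scans of fluorescent anti-GST signal were the basis for scoring. That signal came from GST-tagged yeast transcription factors applied at about 100-200 nM to double-stranded universal all-10-mer Agilent arrays on fresh or once-stripped slides. Each ungapped eight-base word, pooled with its reverse complement, received an E-score from the Universal PBM Analysis Suite.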

Sequence	PBM E-score
AGCTTAAG	-0.0633
GTCTGCAC	-0.061
AGCAAGAA	-0.132
AGTTCCCG	-0.0372
CGCTTCCG	0.133
AACTAGGC	-0.192
ACCGGACT	-0.0079
CAGCGATG	-0.0769
GAGTTGAC	0.0435
GAGCCAAC	-0.286
CAGTCCTA	0.0184
AGGGCTGC	-0.264
GAAACCCC	-0.219
CATCAGAA	-0.0549
GGACACGA	0.043
GGGTTTGA	0.121
GTGTGTCA	0.219
ATTTCGGA	0.0608
ATCTTACG	0.0708
AAGTTTGG	0.0771
CCGCCGAG	-0.108
AATAGAGG	-0.153
ATTAACGA	0.277
AACTGCGG	-0.15
CGACAACG	0.218

Sequence	PBM E-score
AACATGTC	0.203
GACAGACA	0.119
ATTCGGGA	0.114
CCATCGTA	0.293
AATTCTTA	-0.0248
CCCGGGAA	-0.173
ACCGCAAA	0.0975
ATTATCTG	0.0187
CTGGAGGC	-0.178
CTTTGCCA	0.0118
AGTTTATC	0.173
ATTGCGGC	-0.119
GGTACTTA	0.0705
ACCTTTGC	-0.0683
ATAGAGTC	-0.114
CCAGTGGG	-0.291
CCGTAGCA	0.0887
CATTGACG	0.257
GAACGAAA	0.0353
AGGTTAAC	-0.114
CCGTCCGA	0.171
ACACGTCC	-0.0608
AGAGTATG	-0.049
CCAATTTC	-0.0137
CGATACAG	-0.0796

Sequence	PBM E-score
CCGGGAAG	-0.0968
AAGATCGC	0.169
AAATCGCT	0.0616
CAGTAGCC	-0.0691
ATATCTCC	0.0235
GTGAAGAA	0.115
ATGGACAG	-0.0977
CCCCAAAG	-0.22
GGAAATCA	0.176
GTCGAGAA	0.0989
AGGTGCAA	-0.153
ATATGTTG	0.102
AAGGCCAG	-0.0747
AGCGTACT	-0.0636
CTACCAAG	-0.0716
CAACGAAG	0.139
TACTTGAA	0.179
GCAGTACA	-0.0702
AGACCAAT	-0.0446
AGGGCGGG	-0.0938
CGAGAATA	0.0831
ACACACAC	-0.0838
GGATTACA	-0.101
AGTGATAT	0.442
CATCTTGG	0.0466

Sequence	PBM E-score
CATCGGCA	-0.063
CGAAGTAC	0.0735
GAAGGGGC	-0.242
TGAGAACA	0.0414
AAACGCGA	0.161
GTCGCGTA	0.244
ATCGCCAT	0.104
ATCCGCTC	-0.229
ATAAAGAC	0.119
ATTAAAAG	-0.103
AAGCGAGT	0.0341
ACTTATAG	-0.0527
CGTCGGCC	0.161
GACTTGGC	-0.216
GAGCCTTA	-0.148
ATGACAAG	0.282
GCAAAACA	-0.053
GTCATTCA	0.195
GTACGTAC	-0.0114
CCCTCGAC	-0.149
CGCGGGGA	-0.155
ACCCGTAA	0.0373
AATACTAT	-0.00924
ATCTATCA	0.202
CTGCAACA	0.0449

Individual results from the list.
In PBM E-score, TGAGAACA reads 0.0414
In PBM E-score, ATCGCCAT reads 0.104
In PBM E-score, GTACGTAC reads -0.0114
In PBM E-score, GAAGGGGC reads -0.242
In PBM E-score, ATCCGCTC reads -0.229
In PBM E-score, ATAAAGAC reads 0.119

Following part:

Sequence	PBM E-score
CCTGTGTA	0.0747
AAGATATA	0.162
AGGGTGTC	-0.00393
CAGGAGAG	-0.155
CCAAGAGG	-0.0611
AGAGCAAA	-0.12
AGAGATAC	0.121
CCCCCTCG	-0.316
GTCTGCTA	-0.00168
ATAGAATA	0.138
AAGGAGGC	-0.345
CAAGACCA	-0.237
ATTATGGG	0.00349
ACTTCTGC	-0.149
CATGACGC	-0.0731
ACTTGTTG	-0.157
CTTACCCC	-0.303
CTCAGAAA	0.0389
CGGCTCTA	-0.122
ACCAATAT	0.109
ATGTACCG	0.094
AAGGAGTG	-0.226
CAGACTAA	0.0203
AAGAGACG	0.0591
AGTACGCA	-0.0914

Sequence	PBM E-score
CGCCAAGC	-0.149
AACAGCAA	-0.106
ACCTCGCA	0.00639
AACCGTGA	0.14
ACACACGC	0.118
GAGACCTC	-0.0238
CTCGGCGC	-0.0963
CACGGTGA	0.308
CGGCCATA	-0.0898
ACGCAATG	0.0245
CAGCATAG	0.0372
CAGAGTCG	-0.146
AGGTCTTA	-0.146
ATGTAAAG	0.0506
CGCCATAG	-0.0608
ATAGCACC	-0.0261
GATTACAC	0.0768
GCAAGGGA	-0.0292
ATATTATC	0.224
ACCTTCAC	0.0414
AGCGGGTG	-0.0513
CTAGGCCC	-0.222
CATAGCCA	-0.118
AGTCGCTA	0.0472
ATCCTATA	0.0917

Sequence	PBM E-score
ATGTCCAC	0.0602
GACCGTAC	0.247
CACTGAAA	-0.00858
CAAGTCCC	-0.164
GTGGGACA	0.118
ACGTCACC	0.22
CGATAATC	0.0719
ACACCAGG	-0.259
AAATCAAC	-0.0454
CTCGCTCC	-0.00865
ACGCGGGC	-0.0155
AATACGCA	-0.0279
AGGTATTC	0.135
GTCGCCTA	-0.0479
AGCGAGCA	-0.0257
CGAGCCAA	-0.246
CCACGGAC	-0.292
CCCGTGTA	0.116
CAGAGCGG	-0.136
AGTTGTTG	-0.0372
CCTGCCTA	-0.185
ATATACTA	0.13
